Assay results from the supplement of paper PMC7877785.
± gives the uncertainty stated by the source. The uncertainty is large for many entries.

Experiment: self-splicing fitness, log relative to wild type (ln ratio); higher = more splicing; Tetrahymena group I intron in knt gene, E. coli kanamycin selection, DiMSum; sequences stand for … in CUCUCU…GGAGGGAAAAGUUAUCAGGCAUGCACCUGGUAGCUAGUCUUUAAACCAAUAGAUUGCAUCGGUUUAAAAGGCAAGACCGUCAAAUUGCGGGAAAGGGGUCAACAGCCGUUCAGUACCAAGUCUCAGGGGAAACUUUGAGAUGGCCUUGCAAAGGGUAUGGUAAUAAGCUGACGGACAUGGUCCUAACCACGCAGCCAAGUCCUAAGUCAACAGAUCUUCUGUUGAUAUGGAUGCAGUUCACAGACUAAAUGUCGGUCGGGGAAGAUGUAUUCUUCUCAUAAGAUAUAGUCGGACCUCUCCUUAAUGGGAGCUAGCGGAUGAAGUGAUGCAACACUGGAGCCGCUGGGAACUAAUUUGUAUGCGAAAGUAUAUUGAUUAGUUUUGGAGUACUCGUGGUCG
Method in brief: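 Library with all eight P1ex-region intron nucleotides randomised, intron inside the knt kanamycin-resistance gene on pET-22b(+), in E. coli BL21(DE3). Cells grew overnight at 37°C or 30°C on LB agar with or without 25 μg/mL kanamycin (plus 100 μg/mL carbenicillin, 50 μM IPTG, 0.2% rhamnose), in six replicate transformations. Pooled colonies were amplicon-sequenced on Illumina HiSeq 2500. DiMSum fitness is the error-weighted combination of wild-type-normalised replicate fold changes, kanamycin versus none.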

Row | Sequence | self-splicing fitness (ln) (37 °C) | self-splicing fitness (ln) (30 °C)
1 | UUGCAGCAAUAUUACGGAAU | -3.14 ± 0.61 | 
2 | GCGCAGCAAUAUUACGCCCC | -0.307 ± 0.77 | -0.868 ± 1.4
3 | UCGGAGCAAUAUUACGCCAG | -0.778 ± 0.64 | -3.92 ± 0.6
4 | GGAUAGCAAUAUUACGAAGC | 0.417 ± 0.82 | 
5 | UGCGAGCAAUAUUACGAGAG | -3.58 ± 0.51 | 
6 | UUGGAGCAAUAUUACGACAC | -2.36 ± 0.37 | -2.93 ± 0.78
7 | UCGUAGCAAUAUUACGCUGU |  | -2.47 ± 0.66
8 | UAUGAGCAAUAUUACGAGAU |  | -2.83 ± 0.57
9 | AGACAGCAAUAUUACGUAAG | -0.396 ± 0.088 | -1.33 ± 0.075
10 | GCCAAGCAAUAUUACGAGUU | -0.45 ± 0.08 | -1.7 ± 0.066
11 | GUGUAGCAAUAUUACGGUCC | -0.716 ± 0.25 | -1.7 ± 0.23
12 | CAGGAGCAAUAUUACGUCAC |  | -3.83 ± 0.6
13 | GGUCAGCAAUAUUACGGCCC | -2.1 ± 0.79 | -2.66 ± 0.54
14 | GACGAGCAAUAUUACGAGUA | -3.26 ± 0.37 | -3.81 ± 0.39
15 | GUCCAGCAAUAUUACGCCGU | -0.122 ± 0.13 | -1.29 ± 0.13
16 | AGGGAGCAAUAUUACGCCAC | -2.58 ± 0.76 | 
17 | GACGAGCAAUAUUACGCCUG |  | -4.19 ± 1
18 | CGUCAGCAAUAUUACGUCAC |  | -3.16 ± 0.54
19 | AGUGAGCAAUAUUACGCCAG |  | -3.87 ± 1
20 | CGUGAGCAAUAUUACGCUUA |  | -4.63 ± 1
21 | AUCGAGCAAUAUUACGAAUG |  | -4.36 ± 1
22 | GUCUAGCAAUAUUACGUCAG | -0.648 ± 0.73 | -2.71 ± 1.1
23 | AUGGAGCAAUAUUACGACCG | -1.19 ± 0.26 | -3.83 ± 0.37
24 | AAAGAGCAAUAUUACGGGUG | -1.88 ± 0.19 | -3.95 ± 0.21

Row | Sequence | self-splicing fitness (ln) (37 °C) | self-splicing fitness (ln) (30 °C)
25 | GUUUAGCAAUAUUACGCAAA | -2.76 ± 0.61 | -3.1 ± 0.63
26 | CCGUAGCAAUAUUACGUGAC | -2.37 ± 0.75 | 
27 | AGGGAGCAAUAUUACGUUCU | -3.29 ± 0.73 | 
28 | GGGGAGCAAUAUUACGCCAG | -3.16 ± 1 | 
29 | UACAAGCAAUAUUACGCAAC |  | -3.75 ± 0.73
30 | UGUAAGCAAUAUUACGUAGC |  | -3.21 ± 0.53
31 | GCGGAGCAAUAUUACGGACC | -1.47 ± 0.87 | 
32 | UCGGAGCAAUAUUACGGGCU | -1.54 ± 1.2 | -2.08 ± 0.8
33 | GGUGAGCAAUAUUACGCCAG | -0.666 ± 0.61 | 
34 | UCUAAGCAAUAUUACGUAGA | -0.771 ± 0.15 | -1.2 ± 0.098
35 | CAGUAGCAAUAUUACGCCGU | -0.37 ± 0.19 | -2.93 ± 0.36
36 | UGUCAGCAAUAUUACGCAAC | -1.26 ± 0.28 | -2.59 ± 0.33
37 | GAGUAGCAAUAUUACGCCGU |  | -3.29 ± 0.53
38 | UGGGAGCAAUAUUACGGGUU |  | -3.97 ± 1
39 | GCCAAGCAAUAUUACGACAG | -3.8 ± 0.39 | -3.63 ± 0.2
40 | AGUGAGCAAUAUUACGUCCG |  | -2.65 ± 1.1
41 | GCCUAGCAAUAUUACGGAGC | -1.43 ± 0.1 | -2.44 ± 0.13
42 | GUGGAGCAAUAUUACGCUGC | -1.62 ± 1.1 | -2.16 ± 0.75
43 | UGGGAGCAAUAUUACGCGUC | -0.00228 ± 0.74 | 
44 | CACUAGCAAUAUUACGAAUA | -2.33 ± 0.18 | -3.16 ± 0.37
45 | CUAUAGCAAUAUUACGACCU | -1.54 ± 1.2 | 
46 | GAUGAGCAAUAUUACGCCUU | -1.99 ± 0.61 | 
47 | UAUGAGCAAUAUUACGCGCC | -2.51 ± 0.63 | 
48 | CUGGAGCAAUAUUACGCCCU | -1.27 ± 0.72 | -1.32 ± 1.4

Pulled one by one from the list above (three):
Row | Sequence | self-splicing fitness (ln) (37 °C) | self-splicing fitness (ln) (30 °C)
31 | GCGGAGCAAUAUUACGGACC | -1.47 ± 0.87 | 
34 | UCUAAGCAAUAUUACGUAGA | -0.771 ± 0.15 | -1.2 ± 0.098
47 | UAUGAGCAAUAUUACGCGCC | -2.51 ± 0.63 | 

Remaining list, next part:

Row | Sequence | self-splicing fitness (ln) (37 °C) | self-splicing fitness (ln) (30 °C)
49 | UGUUAGCAAUAUUACGUAGC |  | -4.43 ± 0.59
50 | GCUAAGCAAUAUUACGGGCC |  | -3.12 ± 0.75
51 | UGAUAGCAAUAUUACGAUGU |  | -2.72 ± 0.63
52 | CGAGAGCAAUAUUACGCCGU | -1.51 ± 0.7 | 
53 | CCACAGCAAUAUUACGGUCA | -3.22 ± 0.34 | -3.27 ± 0.21
54 | GUCGAGCAAUAUUACGGGAC | -2.05 ± 0.21 | -3.05 ± 0.22
55 | UGGUAGCAAUAUUACGGGAU | -2.32 ± 0.28 | -3.14 ± 0.36
56 | UCGGAGCAAUAUUACGGCUA |  | -1.8 ± 0.57
57 | GGCUAGCAAUAUUACGACCC | -0.966 ± 0.37 | -1.79 ± 0.36
58 | CGUAAGCAAUAUUACGAGAA | -0.373 ± 0.92 | -1.52 ± 1.2
59 | GUGGAGCAAUAUUACGGUGA |  | -2.44 ± 0.55
60 | CCCGAGCAAUAUUACGGACC | -4.55 ± 0.72 | 
61 | GGUUAGCAAUAUUACGGGAU | -1.4 ± 0.24 | -3.13 ± 0.26
62 | UUAUAGCAAUAUUACGAGGU |  | -3.48 ± 0.52
63 | UGUGAGCAAUAUUACGUGCC | -2.2 ± 0.55 | 
64 | UGGUAGCAAUAUUACGCAGC |  | -3.27 ± 0.76
65 | AGUCAGCAAUAUUACGUUGC |  | -3.46 ± 1.1
66 | GUGUAGCAAUAUUACGAGGA | -2.17 ± 0.56 | 
67 | UUCUAGCAAUAUUACGAAAG | -2.87 ± 0.32 | -5.13 ± 0.72
68 | GAUAAGCAAUAUUACGGUCC |  | -3.22 ± 0.54
69 | UCGAAGCAAUAUUACGGGGC | -3.09 ± 0.52 | -4.36 ± 1
70 | UUUCAGCAAUAUUACGCCCC | -2.3 ± 1.1 | 
71 | CUAGAGCAAUAUUACGAAAA | -0.996 ± 0.53 | 
72 | UAUGAGCAAUAUUACGGGCU |  | -3.62 ± 0.53

Row | Sequence | self-splicing fitness (ln) (37 °C) | self-splicing fitness (ln) (30 °C)
73 | UCUUAGCAAUAUUACGUAUC | -1.6 ± 0.62 | -4.29 ± 1.1
74 | GGGUAGCAAUAUUACGAUAG | -2.87 ± 0.54 | 
75 | UUGCAGCAAUAUUACGCGCC | -0.753 ± 0.53 | 
76 | CUUCAGCAAUAUUACGUCGA | -2.95 ± 0.3 | -4.35 ± 0.46
77 | ACUGAGCAAUAUUACGACCG | -0.981 ± 0.23 | -1.3 ± 0.17
78 | CGUCAGCAAUAUUACGCUUG | 0.41 ± 0.12 | -1.03 ± 0.098
79 | ACGGAGCAAUAUUACGUAGC |  | -4.6 ± 1
80 | AUAUAGCAAUAUUACGACUU | -0.272 ± 0.075 | 0.217 ± 0.073
81 | GCCGAGCAAUAUUACGAUAC |  | -3.52 ± 1.1
82 | AUAUAGCAAUAUUACGUUAG | 0.000402 ± 1.2 | -0.572 ± 0.76
83 | UCUUAGCAAUAUUACGCCUA | -2.71 ± 0.41 | -3.12 ± 0.66
84 | CUAAAGCAAUAUUACGUACC |  | -2.71 ± 0.5
85 | CUUAAGCAAUAUUACGUUGU | -1.64 ± 0.15 | -3.89 ± 0.2
86 | CGUGAGCAAUAUUACGCUGA |  | -2 ± 0.53
87 | UCAAAGCAAUAUUACGAGUC | -2.26 ± 0.22 | -3.79 ± 0.21
88 | GCUCAGCAAUAUUACGCCAA | -3.18 ± 1 | 
89 | GAAGAGCAAUAUUACGUCCA | -2.4 ± 0.55 | 
90 | GAGAAGCAAUAUUACGGAGG |  | -2.75 ± 0.64
91 | GGGUAGCAAUAUUACGCUAG | -1.24 ± 0.26 | 
92 | AUUAAGCAAUAUUACGAAUG | -0.206 ± 0.2 | -2.82 ± 0.2
93 | UGUGAGCAAUAUUACGCGUC | -3.05 ± 0.61 | 
94 | GUGAAGCAAUAUUACGUUGC |  | -4.23 ± 0.75
